Test results as given in patent US20100143897A1, “Materials and Methods for Assaying for Glyoxylate” (University of South Florida, priority 2005, published 2010).

System: peptidylglycine α-amidating monooxygenase (PAM)
Test: PAM treatment of hippurate: benzamide by HPLC, glyoxylate by malate synthase/malate dehydrogenase/MTS/PMS system
Format: biochemical
Method: Spectrophotometric enzyme-linked assays for glyoxylate were initiated by the addition of malate synthase and malate dehydrogenase. […] The absorbance at 490 nm was measured after one hour incubation at 37° C. in the dark. The small amount of MTS reduced for the zero glyoxylate control was subtracted from that obtained in the presence of glyoxylate. Hippurate (N-benzoylglycine, C6H5—CO—NH—CH2—COO^−) is a PAM substrate that is oxidatively converted to benzamide and glyoxylate. […] At 10 min intervals over a period of 110 minutes, 45 μl aliquots were removed and added to 10 μl of 6% (v/v) trifluoroacetic acid to terminate the reaction. Percent conversion of hippurate to benzamide was determined at each time interval by reverse-phase HPLC. […] Following ascorbate removal the addition of 100 ul enzyme couple and PMS/MTS brought the assay to a final volume of 1 ml which contained 100 mM TEA-HCl pH 7.8, 10 mM MgCl2, 400 μM acetyl-CoA, 500 μM NAD^+, 6 U/ml malate synthase, 6 U/ml malate dehydrogenase, and 12 units ascorbate oxidase. […] A control for this experiment was performed at each time point, and contained no hippurate.

O=C(O)CNC(=O)c1ccccc1 [Hippurate, N-benzoylglycine]
[Glyoxylate]/[Benzamide] (Time 40): 1.2
[Glyoxylate]/[Benzamide] (Time 50): 0.96
[Glyoxylate]/[Benzamide] (Time 60): 0.89
[Glyoxylate]/[Benzamide] (Time 70): 0.83
[Glyoxylate]/[Benzamide] (Time 80): 0.79
[Glyoxylate]/[Benzamide] (Time 90): 1.2
[Glyoxylate]/[Benzamide] (Time 100): 1.1
[Glyoxylate]/[Benzamide] (Time 110): 1.0
